Assay results: publication PMC7712654
Results are given in words; binding and its absence hold for the method and conditions named.

Target: T1, β-CT (yeast two-hybrid) (Arabidopsis thaliana) (UniProt P56765)
T1 sequence: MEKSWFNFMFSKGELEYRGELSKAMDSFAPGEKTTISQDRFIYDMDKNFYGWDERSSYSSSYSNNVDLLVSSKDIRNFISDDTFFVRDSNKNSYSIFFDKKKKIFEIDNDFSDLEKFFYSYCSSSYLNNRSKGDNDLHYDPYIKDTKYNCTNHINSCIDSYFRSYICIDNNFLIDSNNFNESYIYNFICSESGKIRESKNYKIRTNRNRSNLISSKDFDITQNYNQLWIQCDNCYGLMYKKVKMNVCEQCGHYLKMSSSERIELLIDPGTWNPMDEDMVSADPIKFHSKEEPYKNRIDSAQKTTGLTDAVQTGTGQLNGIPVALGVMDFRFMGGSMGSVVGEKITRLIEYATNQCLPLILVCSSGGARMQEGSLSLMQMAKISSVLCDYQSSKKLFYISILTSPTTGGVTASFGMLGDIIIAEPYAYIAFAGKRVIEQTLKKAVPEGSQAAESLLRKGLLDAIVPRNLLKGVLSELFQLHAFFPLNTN
Test: two-hybrid; oriented assays: CTI coiled-coil domains in pGADT7, α-CT in pGBKT7, strain AH109, SD-LWH with 1 mM 3-amino-1,2,4-triazole, 30 °C

Row | Substance | binding
1 | coiled-coil domain of CTI2 (targeted yeast two-hybrid) (Arabidopsis thaliana) (domain or fragment) | no binding
2 | coiled-coil domain of CTI3 (targeted yeast two-hybrid) (Arabidopsis thaliana) (domain or fragment) | no binding
3 | coiled-coil-containing C-terminus of CTI1 (targeted yeast two-hybrid) (Arabidopsis thaliana) (domain or fragment) | no binding
